Experimental data taken from the supplement of paper PMC10849652.
Some of the results follow.

By UniProt entry, the sequences of proteins in these tests, tags left out. Where a name states a change or a piece, a line headed by the entry shows the natural chain unless it says otherwise.
UniProt P16383: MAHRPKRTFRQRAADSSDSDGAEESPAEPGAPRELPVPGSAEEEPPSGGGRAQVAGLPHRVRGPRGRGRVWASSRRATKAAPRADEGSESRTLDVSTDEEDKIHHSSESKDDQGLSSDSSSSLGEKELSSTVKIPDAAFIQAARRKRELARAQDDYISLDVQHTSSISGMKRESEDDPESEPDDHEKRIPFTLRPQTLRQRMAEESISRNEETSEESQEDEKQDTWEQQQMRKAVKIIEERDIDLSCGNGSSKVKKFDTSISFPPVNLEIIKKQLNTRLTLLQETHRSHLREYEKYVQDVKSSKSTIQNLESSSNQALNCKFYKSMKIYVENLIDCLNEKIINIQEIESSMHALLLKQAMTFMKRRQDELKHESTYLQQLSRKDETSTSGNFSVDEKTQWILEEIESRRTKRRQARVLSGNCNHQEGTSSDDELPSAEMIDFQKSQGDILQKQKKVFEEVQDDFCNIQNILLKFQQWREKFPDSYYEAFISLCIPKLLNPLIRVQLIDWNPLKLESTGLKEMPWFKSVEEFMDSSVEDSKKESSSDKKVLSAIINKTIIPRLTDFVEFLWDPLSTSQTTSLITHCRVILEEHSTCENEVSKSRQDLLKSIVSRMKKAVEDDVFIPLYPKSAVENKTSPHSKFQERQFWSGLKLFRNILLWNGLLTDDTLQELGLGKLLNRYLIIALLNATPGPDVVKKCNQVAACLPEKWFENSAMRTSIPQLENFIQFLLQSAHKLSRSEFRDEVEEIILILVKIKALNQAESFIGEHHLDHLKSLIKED
UniProt P09958, whole entry, looked up: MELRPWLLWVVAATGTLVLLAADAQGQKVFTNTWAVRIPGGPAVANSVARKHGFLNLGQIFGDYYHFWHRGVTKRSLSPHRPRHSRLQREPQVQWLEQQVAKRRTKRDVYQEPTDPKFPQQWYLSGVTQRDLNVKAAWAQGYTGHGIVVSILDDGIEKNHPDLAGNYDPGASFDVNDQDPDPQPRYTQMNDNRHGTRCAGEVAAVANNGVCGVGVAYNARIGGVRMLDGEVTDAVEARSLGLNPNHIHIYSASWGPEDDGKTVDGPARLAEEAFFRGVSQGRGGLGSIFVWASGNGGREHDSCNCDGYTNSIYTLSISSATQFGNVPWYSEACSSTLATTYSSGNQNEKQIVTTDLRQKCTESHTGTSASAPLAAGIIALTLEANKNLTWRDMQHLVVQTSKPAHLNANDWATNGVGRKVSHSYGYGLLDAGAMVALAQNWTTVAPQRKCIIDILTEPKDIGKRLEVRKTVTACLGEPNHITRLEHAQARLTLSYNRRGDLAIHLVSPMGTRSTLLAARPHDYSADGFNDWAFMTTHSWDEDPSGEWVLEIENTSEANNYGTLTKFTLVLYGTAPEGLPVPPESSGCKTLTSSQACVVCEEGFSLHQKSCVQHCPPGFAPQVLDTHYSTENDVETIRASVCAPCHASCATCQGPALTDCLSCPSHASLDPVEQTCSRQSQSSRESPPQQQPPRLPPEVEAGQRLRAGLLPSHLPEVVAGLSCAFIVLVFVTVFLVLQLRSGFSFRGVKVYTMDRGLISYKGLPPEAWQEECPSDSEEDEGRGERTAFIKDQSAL
UniProt P50395: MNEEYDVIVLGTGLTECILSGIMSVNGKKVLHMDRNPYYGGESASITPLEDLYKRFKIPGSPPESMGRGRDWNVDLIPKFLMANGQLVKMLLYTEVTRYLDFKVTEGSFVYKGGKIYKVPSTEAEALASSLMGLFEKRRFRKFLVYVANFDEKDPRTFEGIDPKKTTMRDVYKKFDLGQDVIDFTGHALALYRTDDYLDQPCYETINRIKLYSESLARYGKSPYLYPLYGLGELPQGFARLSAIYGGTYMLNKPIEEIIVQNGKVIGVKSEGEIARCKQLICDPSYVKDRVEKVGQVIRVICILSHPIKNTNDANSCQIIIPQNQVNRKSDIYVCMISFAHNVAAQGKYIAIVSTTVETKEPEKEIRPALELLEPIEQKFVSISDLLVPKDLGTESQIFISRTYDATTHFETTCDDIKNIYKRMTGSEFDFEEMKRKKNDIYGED
UniProt P14136, whole entry, looked up: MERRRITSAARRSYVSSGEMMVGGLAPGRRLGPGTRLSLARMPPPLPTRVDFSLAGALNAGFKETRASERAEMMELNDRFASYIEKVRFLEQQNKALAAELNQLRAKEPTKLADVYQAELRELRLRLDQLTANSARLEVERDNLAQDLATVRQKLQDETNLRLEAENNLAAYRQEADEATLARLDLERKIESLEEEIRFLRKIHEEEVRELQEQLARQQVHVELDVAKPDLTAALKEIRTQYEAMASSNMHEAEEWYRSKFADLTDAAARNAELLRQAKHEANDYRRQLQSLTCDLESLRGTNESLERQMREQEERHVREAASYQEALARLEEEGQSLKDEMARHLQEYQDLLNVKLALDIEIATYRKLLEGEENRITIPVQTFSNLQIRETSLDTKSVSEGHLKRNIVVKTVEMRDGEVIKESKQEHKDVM
UniProt P22102: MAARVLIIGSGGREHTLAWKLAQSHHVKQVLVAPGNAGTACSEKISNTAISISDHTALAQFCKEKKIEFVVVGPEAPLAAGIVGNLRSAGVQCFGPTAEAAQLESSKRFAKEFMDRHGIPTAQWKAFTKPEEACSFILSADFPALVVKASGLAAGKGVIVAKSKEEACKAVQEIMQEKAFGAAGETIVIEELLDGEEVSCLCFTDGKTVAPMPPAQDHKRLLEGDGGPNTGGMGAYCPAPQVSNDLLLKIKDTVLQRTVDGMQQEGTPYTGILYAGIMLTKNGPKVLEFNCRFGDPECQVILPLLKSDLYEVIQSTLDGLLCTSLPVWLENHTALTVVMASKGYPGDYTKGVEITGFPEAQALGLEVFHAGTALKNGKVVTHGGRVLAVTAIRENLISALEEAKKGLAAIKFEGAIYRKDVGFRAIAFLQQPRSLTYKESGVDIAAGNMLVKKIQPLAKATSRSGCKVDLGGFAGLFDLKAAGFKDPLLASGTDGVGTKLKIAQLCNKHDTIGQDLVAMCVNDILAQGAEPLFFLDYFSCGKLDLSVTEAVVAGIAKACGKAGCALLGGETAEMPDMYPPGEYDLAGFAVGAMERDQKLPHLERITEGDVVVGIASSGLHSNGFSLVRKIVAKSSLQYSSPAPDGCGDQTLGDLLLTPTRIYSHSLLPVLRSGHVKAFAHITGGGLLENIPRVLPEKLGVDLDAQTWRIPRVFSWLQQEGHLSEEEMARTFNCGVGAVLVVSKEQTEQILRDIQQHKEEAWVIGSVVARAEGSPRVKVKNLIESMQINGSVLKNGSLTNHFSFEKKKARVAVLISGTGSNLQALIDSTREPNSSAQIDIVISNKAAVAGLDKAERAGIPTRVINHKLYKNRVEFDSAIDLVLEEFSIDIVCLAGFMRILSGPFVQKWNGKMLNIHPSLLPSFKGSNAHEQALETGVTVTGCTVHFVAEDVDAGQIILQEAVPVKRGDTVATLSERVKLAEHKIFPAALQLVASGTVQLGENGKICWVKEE
UniProt Q92820: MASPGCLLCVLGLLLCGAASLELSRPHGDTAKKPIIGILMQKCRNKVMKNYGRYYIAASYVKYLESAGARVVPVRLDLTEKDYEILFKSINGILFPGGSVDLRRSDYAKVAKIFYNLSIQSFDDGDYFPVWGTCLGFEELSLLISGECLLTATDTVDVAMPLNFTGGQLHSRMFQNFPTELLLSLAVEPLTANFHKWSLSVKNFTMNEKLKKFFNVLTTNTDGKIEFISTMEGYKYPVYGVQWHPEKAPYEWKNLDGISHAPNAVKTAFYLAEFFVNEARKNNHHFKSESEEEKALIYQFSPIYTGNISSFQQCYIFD
UniProt Q8TB36: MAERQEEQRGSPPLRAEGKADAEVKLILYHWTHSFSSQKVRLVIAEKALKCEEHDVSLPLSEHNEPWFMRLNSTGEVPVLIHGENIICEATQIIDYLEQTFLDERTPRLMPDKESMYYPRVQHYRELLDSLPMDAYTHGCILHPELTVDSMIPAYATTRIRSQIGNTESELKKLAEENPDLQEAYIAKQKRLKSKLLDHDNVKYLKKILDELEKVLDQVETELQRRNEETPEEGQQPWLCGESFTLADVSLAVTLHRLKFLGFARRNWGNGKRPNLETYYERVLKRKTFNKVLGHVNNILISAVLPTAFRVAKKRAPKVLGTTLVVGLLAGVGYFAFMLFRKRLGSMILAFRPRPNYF
UniProt Q9BUM1: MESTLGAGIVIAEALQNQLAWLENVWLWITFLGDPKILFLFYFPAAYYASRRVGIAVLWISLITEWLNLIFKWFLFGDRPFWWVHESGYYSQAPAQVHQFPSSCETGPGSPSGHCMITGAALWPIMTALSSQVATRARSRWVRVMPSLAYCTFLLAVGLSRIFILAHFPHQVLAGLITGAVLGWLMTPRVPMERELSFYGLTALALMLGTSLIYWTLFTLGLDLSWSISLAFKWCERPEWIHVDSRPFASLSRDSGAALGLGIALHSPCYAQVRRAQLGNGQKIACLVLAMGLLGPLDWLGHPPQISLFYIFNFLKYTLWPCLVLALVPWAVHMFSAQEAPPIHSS
UniProt Q9C0B1, whole entry, looked up: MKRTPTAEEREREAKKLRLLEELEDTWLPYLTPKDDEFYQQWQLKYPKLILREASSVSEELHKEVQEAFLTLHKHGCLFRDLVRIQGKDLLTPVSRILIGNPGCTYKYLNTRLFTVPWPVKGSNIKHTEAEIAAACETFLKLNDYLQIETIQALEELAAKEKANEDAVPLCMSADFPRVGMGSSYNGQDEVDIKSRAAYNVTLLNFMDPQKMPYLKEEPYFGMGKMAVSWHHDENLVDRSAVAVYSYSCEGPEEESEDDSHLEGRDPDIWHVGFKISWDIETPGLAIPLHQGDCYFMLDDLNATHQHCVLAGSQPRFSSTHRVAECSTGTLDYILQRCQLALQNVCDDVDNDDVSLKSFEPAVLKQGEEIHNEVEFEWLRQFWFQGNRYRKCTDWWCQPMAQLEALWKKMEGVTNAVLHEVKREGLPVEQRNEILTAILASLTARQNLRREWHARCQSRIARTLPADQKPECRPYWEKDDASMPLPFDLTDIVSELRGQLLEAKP
UniProt Q86SF2: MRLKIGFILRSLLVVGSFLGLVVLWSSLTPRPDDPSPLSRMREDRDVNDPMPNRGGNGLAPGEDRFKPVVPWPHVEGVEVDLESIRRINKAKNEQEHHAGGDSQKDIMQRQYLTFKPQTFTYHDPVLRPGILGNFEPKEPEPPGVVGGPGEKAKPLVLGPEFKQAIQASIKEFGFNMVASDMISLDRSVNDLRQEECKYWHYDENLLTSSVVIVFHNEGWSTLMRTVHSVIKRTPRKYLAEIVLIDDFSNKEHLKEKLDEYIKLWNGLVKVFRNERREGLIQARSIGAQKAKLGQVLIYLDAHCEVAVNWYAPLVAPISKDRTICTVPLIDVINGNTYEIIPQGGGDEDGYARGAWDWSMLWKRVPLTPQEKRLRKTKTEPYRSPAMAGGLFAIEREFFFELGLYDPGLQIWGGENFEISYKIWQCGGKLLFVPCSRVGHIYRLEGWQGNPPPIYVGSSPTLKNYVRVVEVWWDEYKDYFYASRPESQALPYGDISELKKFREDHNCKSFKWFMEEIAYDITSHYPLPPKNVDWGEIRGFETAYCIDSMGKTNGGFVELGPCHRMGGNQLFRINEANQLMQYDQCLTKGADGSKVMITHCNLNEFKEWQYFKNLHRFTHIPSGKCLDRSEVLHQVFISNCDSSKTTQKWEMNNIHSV
UniProt O75223: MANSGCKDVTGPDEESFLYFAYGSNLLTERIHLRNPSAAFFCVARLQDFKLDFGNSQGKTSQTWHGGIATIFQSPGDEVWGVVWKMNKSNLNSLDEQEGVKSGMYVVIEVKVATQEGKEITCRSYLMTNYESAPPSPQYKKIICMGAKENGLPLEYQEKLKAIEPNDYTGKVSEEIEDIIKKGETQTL
UniProt Q9UN86: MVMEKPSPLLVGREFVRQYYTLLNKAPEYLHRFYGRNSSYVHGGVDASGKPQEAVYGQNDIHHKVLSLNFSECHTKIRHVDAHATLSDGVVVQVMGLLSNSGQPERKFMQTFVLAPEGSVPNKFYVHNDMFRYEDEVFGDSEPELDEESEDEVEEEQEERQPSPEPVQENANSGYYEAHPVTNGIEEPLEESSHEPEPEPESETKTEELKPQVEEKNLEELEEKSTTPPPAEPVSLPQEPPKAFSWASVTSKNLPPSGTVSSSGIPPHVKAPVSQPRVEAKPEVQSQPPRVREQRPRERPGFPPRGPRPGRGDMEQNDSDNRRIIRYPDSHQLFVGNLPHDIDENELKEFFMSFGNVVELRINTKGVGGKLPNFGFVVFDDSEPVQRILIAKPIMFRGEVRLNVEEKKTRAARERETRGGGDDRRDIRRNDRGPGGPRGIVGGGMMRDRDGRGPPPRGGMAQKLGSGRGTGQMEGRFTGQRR

compound: c1cn2cc(-c3ccc4cn[nH]c4c3)nc(Nc3ccc(N4CCOCC4)cc3)c2n1 [entospletinib]; test: log2 fold change, soluble protein after heating vs DMSO (PISA); higher = thermal stabilisation; K562 cells, 10 uM, 30 min; active = over 0.2 and 3.5 SD of the protein, either way, in both replicates (recomputed)
In short: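 Soluble protein was quantified by TMTpro 16plex LC-MS/MS after channel sums were equalised. It was obtained as the supernatant after 21,000xg for 90 min from pooled aliquots of K562 cells (2×10^6 cells/mL, 10 μM compound, 30 min) heated for 3 min across 48°C-58°C and extracted in PBS with 0.5% NP-40 at 4°C. Thermal stability values are relative to control samples and come from duplicates. They are given as log2 fold changes.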

log2 fold change, inactive:
GANAB (UniProt Q14697) 0.345
GART (UniProt C9JZG2) -0.325
FTL (UniProt P02792) -0.096
FXR2 (UniProt P51116) 0.072
FRRS1 (UniProt Q6ZNA5) -0.052
GATAD2B (UniProt Q8WXI9) -0.288
GCFC2 (UniProt P16383) 0.047
FOXJ3 (UniProt Q9UPW0) -0.016
FUS (UniProt P35637) 0.106
GFER (UniProt P55789) -0.063
FURIN (UniProt P09958) 0.02
GAA (UniProt P10253) -0.029
GDI2 (UniProt P50395) 0.026
GFAP isoform 2 (UniProt P14136) 0
GALNT12 (UniProt Q8IXK2) 0.032
GART (UniProt P22102) 0.045
GGH (UniProt Q92820) 0.028
GBA (UniProt P04062) 0.01
GALNT5 (UniProt Q7Z7M9) 0.002
GAN (UniProt Q9H2C0) 0.025
GDAP1 (UniProt Q8TB36) -0.191
GET4 (UniProt Q7L5D6) 0.01
G6PC3 (UniProt Q9BUM1) 0.033
FTO (UniProt Q9C0B1) 0.009
GALNT7 (UniProt Q86SF2) -0.039
GAGE1 (UniProt Q13065) -0.082
G6PD isoform 2 (UniProt P11413) 0.057
GGCT (UniProt O75223) 0.058
FRY (UniProt Q5TBA9) 0.049
FRG1 (UniProt Q14331) 0.083
G3BP2 (UniProt Q9UN86) 0.137

Random excerpt: two entries already listed, in no set order.
log2 fold change, inactive:
GBA (UniProt P04062) 0.01
GET4 (UniProt Q7L5D6) 0.01
